Experimental data from patent US6224857A, “Pharmaceutical preparations comprised of salts of hyaluronic acid with local anaesthetics” (Fidia, S.p.A., priority 1996, dated 2001).
Structures can show the parent of a compound that is named as a salt.

Tested on: rabbit cornea
Experiment: Corneal anaesthesia in rabbit (blinking reflex, Camougis and Tankman method)
Assay type: in vivo
Conditions: rabbit eye, reference Lidocaine HCl = 100
Description: […] of solution was instilled in the conjunctival sac. The blinking reflex, tested with a bristle, was measured before instillation and then every 5-10 minutes until one hour after treatment. At each test time the degree of anaesthesia was expressed by means of a score of up to 10 given by the number of stimulations before the eye-blink reflex was obtained. The overall anaesthetic effect for each compound was then quantified by the area under curve (AUC) of the degree of anaesthesia over time.

Structure (SMILES): CCN(CC)CC(=O)Nc1c(C)cccc1C [Lidocaine HCl, lidocaine hydrochloride]
- Anaesthesia (AUC) (Table 1, dose 1% (as hydrochloride)): 100
- Anaesthesia (AUC) (Table 4, dose 0.125%, alkaline salts): 100
